We go through 104 sequences from PubChem BioAssay AID1347423 (Functional Genomics Laboratory (NCATS/FGL), 2020).

Hit rate of the full screen: of about 52,000 sequences, about 210 (0.4%) were called active.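 How the source made its calls: active means gene whose silencing raises cell survival under the drug, median off-target-corrected z-score across its silencing RNAs 2 or more; inactive means the rest.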 This is one part of the list.

This experiment is described as follows: Resistance to Poly (ADP-Ribose) Polymerase inhibitor: Gene Identification via Genome-wide siRNA Screen. The conditions noted are these: mouse BRCA2 R2336H ES cells, olaparib, CellTiter-Glo viability; hits give high values. The method in brief:
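Genome-wide siRNA screen (3 siRNAs/gene, 20 nM) in mouse ES cells carrying hypomorphic BRCA2 R2336H; olaparib 500 nM added 48 h post-transfection, CellTiter-Glo viability 72 h later. Normalized to plate-median negative control; MAD z-scores, gene median, seed-adjusted.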
Background: Cellular ATP, detected with luciferase, serves as a proxy for viable cell number.
Take GGAGAAGUUUGGGAAGAAATT against Gys2: the z-score was inactive: 1.63. Consider GGGAAAGACUGGAAAUCUUTT against Tmod3, for which the z-score is inactive: 2.14. In the case of CCGGACCAUCUUCGACAGUTT against Tmepai, the z-score was inactive: -1.07. Take CCGAUGGGAAAAUCCAGUUTT against AB114826: the z-score was inactive: -3.09. GGAGCUGCUCCAGUUGAUATT against Col11a1: the z-score was inactive: 0.826. In the case of GCUGAAAUGGAGUAUUUGATT against Nf2, the z-score was inactive: 0.552. “GCGAUCUACGCUUUCAAAGTT against B930096L08Rik”: the z-score is inactive: -0.0873. The result for GCUCCACAAGAUGUAAAGGTT against Il21 reads inactive: -1.83. For the sequence GCACCUACGUUUGUUGGAUTT against Clasp2, the z-score was inactive: -1.32. With CCAGAAAUAAAAGACAUCGTT against BC038311, the z-score is inactive: 0.368. Take GGGAUAUCCUACCAGGUCATT against Ppard: the z-score was inactive: -0.314. Take GCAUUCAGUUGGGACAGUATT against Hsh2d: the z-score is inactive: -1.15.

Take GCGCAGGUUGGAUGAAUGUTT against Psme3: the z-score is inactive: -1.28.

For the sequence CGACCUGCUCUCAUAGCUUTT against Sycn, the z-score is inactive: -0.71. The result for GGAGGAAGAAACAAAAAAATT against Nolc1 reads inactive: 0.664. Regarding GUUUCAUGAGUGCCUCCAUTT against Olfr1446, the z-score was inactive: 0.962. On to CAAGAAAAUGCUCUCUGUUTT against Gm1553, for which the z-score is inactive: -0.944.

Take GCAAUGUGCACGAUGAUGATT against Pik3cg: the z-score is inactive: -2.47. The result for GGCUGAUGAUACUUAAACATT against V1rg8 reads inactive: -2.45. For the sequence GCUUCCACAUAUUUUUUGCTT against Olfr1467, the z-score is inactive: -0.557.

GGCAGCUAAACUGUGUUAUTT against Tex11: the z-score was inactive: -0.798. As for GGAGAGUGUAUCCUAUCUGTT against Snapc3, the z-score is inactive: -1.32. Turning to CCCUGGUAUCUUACAUCGATT against Zdhhc19, the z-score was inactive: -0.157. As for “GGCAAAACAAAAACUCUACTT against 1700028P14Rik”, the z-score is inactive: -0.601. As to GGAAAUGCCACCAUUGUUATT against Olfr514, the z-score is inactive: 0.0719. Take CCCUAACAUUGAGAUGAUUTT against Peg10: the z-score is inactive: 1.74.

For GGCCCAGUCUUCUCAAAAATT against Lass2, the z-score is inactive: -0.22. “GGAUGAAGACAGUCAAAUGTT against 2310061G07Rik”: the z-score was inactive: -0.65. The figure for GGAUGAAGCGAAUCACAACTT against Atp1b4 is inactive: -0.734; for GGGAGCUACGUUCAGAAGUTT against Gckr it is inactive: -0.157. For the sequence GGAGGAAACACGUCUGAAUTT against Slc4a9, the z-score was inactive: 0.554. Take GGCAGCUAGAGAGAAUCCUTT against Akr1c12: the z-score is inactive: -0.435. The figure for “GGAUGACAUGAAAAUGGAATT against 1190005P17Rik” is inactive: 0.183. With GGCUUUACCGGAUCUUUUGTT against Krtap15, the z-score is inactive: 0.313. On to “GGUUAUGAUCGGCAUCGCUTT against 1700063I17Rik”, for which the z-score is inactive: -0.431. Consider “GCAGAUCGUGCGGAUCUUGTT against 4930556P03Rik”, for which the z-score was inactive: -0.365. With GCUGCCCUUCGAUUUCUGUTT against Olfr550, the z-score was inactive: 0.744.

Consider GGCUCUAGGUACUUGUGGUTT against Olfr617, for which the z-score is inactive: 0.46. As for CAAAUUAUGAGUGAGAACCTT against Olfr340, the z-score is inactive: -1.17.

Consider CCAAGUUUGUUUCAGACGGTT against Btbd6, for which the z-score was inactive: 0.327. For the sequence “GGUGAACAAUACGGCUGUGTT against D730040F13Rik”, the z-score is inactive: -1.07. As to GGAACUUCUGAACAUCAGCTT against Isp1, the z-score is inactive: 0.855.

With GGAGAUUCUGAUGAAGAAGTT against Hbld2, the z-score was inactive: -0.162.

On to “GGCGAUAGUGUCUAAGAAATT against 1110004E09Rik”, for which the z-score was inactive: -0.337. As for CGUGCUCAUUUAGGUUAUATT against Zfp57, the z-score is inactive: 1.38. The result for GGUCAUCCUUUUUCAGUACTT against Lhx6 reads inactive: 1.09; that for GGCUGUUUUGUGAACCUAATT against Olfr481, inactive: -0.634; that for GGAAUCCUAGGUUGCAUUATT against Mycbpap, inactive: -2.29.

On to GAUGGUAGAGUCUACAUCATT against Hcst, for which the z-score was inactive: 0.671.

Regarding GCAACAUGAGGUAUAUUGGTT against Sema4d, the z-score is inactive: -0.211. The result for GGAUGCAUGGCCCAACUUUTT against Olfr915 reads inactive: -0.92; that for GGACAUCUUGUGUCUGUGCTT against Reg3g, inactive: -2.1; that for GUUGCUGUAAACCCUGCUGTT against Krtap5-4, inactive: -0.692. As for GGAACAUAUGCAGAAUUUATT against Bai3, the z-score was inactive: 1.87. Take “CCUGUCCUACCAAAGUCUUTT against 1810020E01Rik”: the z-score was inactive: -0.419.

Regarding CCAUUUUCGGCAAUGCGCUTT against Adra2b, the z-score is inactive: -0.872. The figure for GGUAUUUGAUGCUCGGGACTT against Nos3 is inactive: -1.7. The figure for “GCAACCAUCUGAUGAUUAATT against 4921523A10Rik” is inactive: -0.45; for GGUUCUACGAGUAAAAAGCTT against G22p1 it is inactive: 0.291. Turning to GCCAUAUCAACCGUAUUGGTT against Prosapip1, the z-score is inactive: -0.808. The result for “GGCUUUUAUAGCUAAGGUUTT against 2600017H08Rik” reads inactive: -1.21. As to “GGCAGUACUCUUCCUCACUTT against A230078I05Rik”, the z-score was inactive: 1.16.

GGUUUUCACUAUUUCAACUTT against Olfr187: the z-score is inactive: 1.32. The result for GGUGCUUGUGGGUAACAAGTT against Rab33a reads inactive: -2.45; that for GCCUCAUGGCUUAACUUUGTT against Acads, inactive: -0.416. Regarding GGGAACACUGUUGUUCUUGTT against Sprr3, the z-score was inactive: -0.51. Turning to GUGAUUGAUAUUGUUCGAGTT against Pip, the z-score is inactive: -0.534. The result for GAAACGGCAGAUUGCUGCUTT against V2r12 reads inactive: -1.21; that for GGACACUAUAAGAAAGGAATT against Fnta, inactive: -0.871; that for GGUUAACCUGAGAAAAAUGTT against Mkrn1, inactive: 0.0533.

Turning to AAGAAUACUCAGAUCAGUUTT against Magee2, the z-score is inactive: -0.405. Take GGUCUAGCUCUGAAACAUCTT against Pms2: the z-score was inactive: 0.304. As for GGAAGAAAUGUCAUCACAATT against Heph, the z-score is inactive: -0.477. In the case of GCCUAGGGAGGUGUAGAAUTT against Marveld1, the z-score was inactive: -1.39.

For GCCACACAUAGGAACCAGUTT against Bat5, the z-score was inactive: -0.927. Consider GGACUCUAGUUCUUCGUUUTT against Hist1h1c, for which the z-score is inactive: -1.02. On to CGGUAAACUGGUUUUACUUTT against BC087945, for which the z-score is inactive: 0.245. Turning to “CCAAACAACCAGCUAAUAUTT against A930039G15Rik”, the z-score is inactive: -1.1. GGAUUUCUACCAGCUCGUGTT against Pop5: the z-score was inactive: -0.036. Regarding GCUCCUAAAAGAACAGUCGTT against Cog3, the z-score is inactive: -2.19.

Consider GAAUUUUUCAGCUCUGUUUTT against Tas2r117, for which the z-score is inactive: 0.168. With GGCCAUCUUUGUUUAAAACTT against Ttc5, the z-score is inactive: 0.666. The result for GGACGUGUGCCAGACUAAATT against Egfl6 reads inactive: -0.753. As to “GGGAAGUUAAUUGAGAUCCTT against D7Ertd156e”, the z-score was inactive: 1.36. In the case of “GGAAGAGGGCAAAAAUGGCTT against 4933405A16Rik”, the z-score was inactive: 1.5. For GCGAGUGGAACAGGAAUAUTT against BC026370, the z-score is inactive: -0.318. Take CCAAAAAAUAGUCCGGUUGTT against LOC238829: the z-score is inactive: -0.436.

Turning to “GGACGUAUCUUCUUUAAGATT against 1500034J20Rik”, the z-score was inactive: 0.214. For the sequence “GCCUAUUGGGUCUACCUCCTT against 1700013L23Rik”, the z-score is inactive: 1.28. Take “CGGCGAGGAGAAGAUAAAATT against 2210415M20Rik”: the z-score was inactive: 0.341. Regarding GGUGGUAUCGGUUUUCUACTT against Olfr1509, the z-score was inactive: -0.102. In the case of GGGAUCCAUCCUCAUCUCATT against Oas1h, the z-score was inactive: -0.278. For GGCAAGAAUCAAGGAGAGATT against Nek1, the z-score was inactive: 1.44.

Turning to GGAUUAUGAUCCAGAAUUCTT against Omd, the z-score was inactive: -0.36.

Consider GGUCUCAUAUCCUCUUUGGTT against Pex11a, for which the z-score was inactive: -0.891. Take “GCUGAGGAGGUUGUAUCAUTT against 4833415N24Rik”: the z-score is inactive: 0.706.

As for GACCCUUUUCACCAAGACATT against Gpsn2, the z-score is inactive: -0.535.

As for AAACCUGUCGUAAAAGCUGTT against Mt4, the z-score is inactive: 0.509. Turning to GGCACUUUGUUUAGGCAAATT against Tcstv1, the z-score is inactive: -0.527. As for CGGUACAAAUGAUUUCUGATT against Pcolce2, the z-score was inactive: 1.79. For GCUAUGGGACUUAGGAAGGTT against Paqr6, the z-score was inactive: 0.702. Consider GCAGAGCAUGCCUUACUGUTT against Eif4ebp1, for which the z-score is inactive: -0.257. Regarding GCGUGAGGAUGUAGACUACTT against Mmp12, the z-score was inactive: -2.12.

Turning to GAGUUGUCCUCUUCACCAUTT against Olfr483, the z-score is inactive: 0.339.
